# Laboratory results taken from the supplement of paper PMC12067093, “Discovery and optimisation of a covalent ligand for TRIM25 and its application to targeted protein ubiquitination” (Chemical Science, 2025).
# Sequences of proteins named here, by UniProt entry; tags and fusion partners are left off. A change or cut given only in a name is not applied to a line headed by its entry.
# UniProt P29466: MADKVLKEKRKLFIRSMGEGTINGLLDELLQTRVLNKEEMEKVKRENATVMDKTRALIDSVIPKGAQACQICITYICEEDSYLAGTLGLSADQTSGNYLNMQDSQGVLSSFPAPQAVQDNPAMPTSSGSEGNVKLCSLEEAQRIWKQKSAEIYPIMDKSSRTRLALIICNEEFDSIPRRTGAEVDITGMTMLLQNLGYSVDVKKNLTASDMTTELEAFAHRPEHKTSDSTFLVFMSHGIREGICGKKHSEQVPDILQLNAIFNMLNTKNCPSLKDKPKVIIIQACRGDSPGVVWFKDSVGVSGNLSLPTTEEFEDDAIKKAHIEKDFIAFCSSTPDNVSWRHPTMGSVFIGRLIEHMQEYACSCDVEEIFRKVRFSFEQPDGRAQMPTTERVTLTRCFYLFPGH
# UniProt O75808: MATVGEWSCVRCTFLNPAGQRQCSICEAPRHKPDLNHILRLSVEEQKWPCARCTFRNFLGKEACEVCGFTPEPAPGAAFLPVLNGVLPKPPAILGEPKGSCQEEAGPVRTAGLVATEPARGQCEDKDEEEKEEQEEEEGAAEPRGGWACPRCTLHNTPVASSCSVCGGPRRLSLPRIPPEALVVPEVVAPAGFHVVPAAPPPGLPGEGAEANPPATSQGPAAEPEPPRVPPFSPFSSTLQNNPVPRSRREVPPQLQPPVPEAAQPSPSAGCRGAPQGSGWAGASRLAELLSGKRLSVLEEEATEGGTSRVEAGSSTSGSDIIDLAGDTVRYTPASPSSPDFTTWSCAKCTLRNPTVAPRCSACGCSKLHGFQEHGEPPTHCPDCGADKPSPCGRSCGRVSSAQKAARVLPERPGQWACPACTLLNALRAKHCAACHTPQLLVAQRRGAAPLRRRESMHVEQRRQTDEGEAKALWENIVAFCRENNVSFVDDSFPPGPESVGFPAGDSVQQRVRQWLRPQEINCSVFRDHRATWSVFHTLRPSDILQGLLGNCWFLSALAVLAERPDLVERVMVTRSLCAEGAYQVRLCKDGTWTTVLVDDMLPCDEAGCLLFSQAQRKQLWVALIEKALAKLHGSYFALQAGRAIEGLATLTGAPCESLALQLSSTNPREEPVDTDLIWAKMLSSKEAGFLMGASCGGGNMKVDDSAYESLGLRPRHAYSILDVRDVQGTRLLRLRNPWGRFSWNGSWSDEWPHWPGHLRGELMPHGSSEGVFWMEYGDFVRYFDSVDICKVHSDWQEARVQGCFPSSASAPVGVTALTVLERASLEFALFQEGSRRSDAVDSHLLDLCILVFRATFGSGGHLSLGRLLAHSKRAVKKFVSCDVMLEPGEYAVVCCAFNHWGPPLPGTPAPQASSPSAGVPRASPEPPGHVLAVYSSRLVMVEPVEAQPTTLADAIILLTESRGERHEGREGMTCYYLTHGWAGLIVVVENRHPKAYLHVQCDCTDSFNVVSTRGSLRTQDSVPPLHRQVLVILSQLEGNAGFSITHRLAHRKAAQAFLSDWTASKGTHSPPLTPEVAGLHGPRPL
# UniProt Q13951, whole entry, looked up: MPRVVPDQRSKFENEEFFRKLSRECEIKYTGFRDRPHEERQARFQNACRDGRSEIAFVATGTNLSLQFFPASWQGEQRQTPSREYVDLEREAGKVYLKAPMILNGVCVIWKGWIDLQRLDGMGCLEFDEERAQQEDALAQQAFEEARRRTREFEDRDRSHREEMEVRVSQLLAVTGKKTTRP
# UniProt O75081: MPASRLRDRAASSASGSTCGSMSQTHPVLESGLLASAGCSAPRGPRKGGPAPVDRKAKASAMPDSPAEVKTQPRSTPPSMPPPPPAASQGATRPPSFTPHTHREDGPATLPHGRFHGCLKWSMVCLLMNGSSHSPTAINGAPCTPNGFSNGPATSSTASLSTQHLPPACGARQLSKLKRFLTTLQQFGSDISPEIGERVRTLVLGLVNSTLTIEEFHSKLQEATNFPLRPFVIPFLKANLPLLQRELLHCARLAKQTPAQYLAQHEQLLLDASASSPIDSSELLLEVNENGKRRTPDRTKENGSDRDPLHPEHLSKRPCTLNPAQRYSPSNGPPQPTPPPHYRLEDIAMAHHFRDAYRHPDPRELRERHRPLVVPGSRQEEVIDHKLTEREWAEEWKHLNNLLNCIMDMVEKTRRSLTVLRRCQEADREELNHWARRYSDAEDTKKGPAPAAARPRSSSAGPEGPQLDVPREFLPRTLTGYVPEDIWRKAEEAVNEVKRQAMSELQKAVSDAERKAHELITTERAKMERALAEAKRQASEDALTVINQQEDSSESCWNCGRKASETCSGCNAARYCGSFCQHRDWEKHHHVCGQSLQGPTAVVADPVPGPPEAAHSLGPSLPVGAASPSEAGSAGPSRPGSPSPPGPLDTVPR
# UniProt P51946: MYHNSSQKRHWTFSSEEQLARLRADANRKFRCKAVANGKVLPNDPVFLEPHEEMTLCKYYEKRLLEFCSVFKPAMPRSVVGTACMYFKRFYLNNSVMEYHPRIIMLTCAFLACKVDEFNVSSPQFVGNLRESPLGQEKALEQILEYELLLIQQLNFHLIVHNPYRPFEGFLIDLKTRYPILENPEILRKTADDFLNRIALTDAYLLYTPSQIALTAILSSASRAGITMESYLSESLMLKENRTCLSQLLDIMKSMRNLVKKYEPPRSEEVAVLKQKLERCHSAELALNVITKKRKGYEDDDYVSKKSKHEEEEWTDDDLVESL
# UniProt Q86X55: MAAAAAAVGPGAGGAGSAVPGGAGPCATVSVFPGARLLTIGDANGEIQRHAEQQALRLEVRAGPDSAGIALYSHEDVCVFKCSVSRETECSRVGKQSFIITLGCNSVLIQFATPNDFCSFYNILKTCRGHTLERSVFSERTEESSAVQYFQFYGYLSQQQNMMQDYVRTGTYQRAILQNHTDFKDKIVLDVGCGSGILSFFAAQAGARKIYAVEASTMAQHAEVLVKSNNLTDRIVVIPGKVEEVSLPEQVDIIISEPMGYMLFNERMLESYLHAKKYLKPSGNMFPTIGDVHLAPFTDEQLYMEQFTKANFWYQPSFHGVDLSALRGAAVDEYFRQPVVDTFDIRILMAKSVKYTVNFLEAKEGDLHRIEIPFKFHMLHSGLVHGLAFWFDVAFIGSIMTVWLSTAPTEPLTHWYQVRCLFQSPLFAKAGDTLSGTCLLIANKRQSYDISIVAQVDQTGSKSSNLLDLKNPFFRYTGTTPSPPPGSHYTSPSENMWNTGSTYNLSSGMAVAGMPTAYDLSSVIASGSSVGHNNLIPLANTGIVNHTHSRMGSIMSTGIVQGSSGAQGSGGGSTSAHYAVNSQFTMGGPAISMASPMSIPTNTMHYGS
# UniProt P55210: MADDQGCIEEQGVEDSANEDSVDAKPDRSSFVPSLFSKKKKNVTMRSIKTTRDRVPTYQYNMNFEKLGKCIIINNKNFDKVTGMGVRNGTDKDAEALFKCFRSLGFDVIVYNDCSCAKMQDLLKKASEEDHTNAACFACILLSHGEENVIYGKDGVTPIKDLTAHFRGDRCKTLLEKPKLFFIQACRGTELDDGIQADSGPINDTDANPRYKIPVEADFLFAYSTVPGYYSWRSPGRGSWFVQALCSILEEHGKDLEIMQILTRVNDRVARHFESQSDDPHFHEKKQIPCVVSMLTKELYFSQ
# UniProt Q75N03: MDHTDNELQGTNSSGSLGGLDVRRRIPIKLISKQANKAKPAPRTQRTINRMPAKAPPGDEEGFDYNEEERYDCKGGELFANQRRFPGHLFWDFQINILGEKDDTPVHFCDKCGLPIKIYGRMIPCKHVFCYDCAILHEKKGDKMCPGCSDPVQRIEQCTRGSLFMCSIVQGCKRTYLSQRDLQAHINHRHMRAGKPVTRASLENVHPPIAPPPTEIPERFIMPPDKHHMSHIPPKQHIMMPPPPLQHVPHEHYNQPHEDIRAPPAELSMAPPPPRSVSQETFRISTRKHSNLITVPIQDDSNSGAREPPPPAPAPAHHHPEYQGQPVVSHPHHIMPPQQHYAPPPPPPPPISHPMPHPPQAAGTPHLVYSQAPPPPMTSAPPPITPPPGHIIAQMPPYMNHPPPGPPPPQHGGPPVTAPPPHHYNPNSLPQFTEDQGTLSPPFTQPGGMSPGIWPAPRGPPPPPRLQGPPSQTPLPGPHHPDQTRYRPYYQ
# UniProt P49368: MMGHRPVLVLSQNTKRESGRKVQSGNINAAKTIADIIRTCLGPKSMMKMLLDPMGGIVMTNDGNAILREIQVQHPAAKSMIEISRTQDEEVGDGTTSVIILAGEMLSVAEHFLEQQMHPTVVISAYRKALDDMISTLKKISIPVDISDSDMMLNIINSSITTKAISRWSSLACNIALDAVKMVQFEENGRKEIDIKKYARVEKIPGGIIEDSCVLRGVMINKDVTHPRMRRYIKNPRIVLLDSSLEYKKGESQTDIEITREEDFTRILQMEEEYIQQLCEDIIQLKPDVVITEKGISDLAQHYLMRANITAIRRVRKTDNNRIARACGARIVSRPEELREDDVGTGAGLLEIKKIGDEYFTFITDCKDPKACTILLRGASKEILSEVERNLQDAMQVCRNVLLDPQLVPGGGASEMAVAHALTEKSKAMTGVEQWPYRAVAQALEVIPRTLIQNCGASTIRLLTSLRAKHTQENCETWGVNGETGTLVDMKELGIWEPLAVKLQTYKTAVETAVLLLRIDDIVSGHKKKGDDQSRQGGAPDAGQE
# UniProt Q9Y3X0: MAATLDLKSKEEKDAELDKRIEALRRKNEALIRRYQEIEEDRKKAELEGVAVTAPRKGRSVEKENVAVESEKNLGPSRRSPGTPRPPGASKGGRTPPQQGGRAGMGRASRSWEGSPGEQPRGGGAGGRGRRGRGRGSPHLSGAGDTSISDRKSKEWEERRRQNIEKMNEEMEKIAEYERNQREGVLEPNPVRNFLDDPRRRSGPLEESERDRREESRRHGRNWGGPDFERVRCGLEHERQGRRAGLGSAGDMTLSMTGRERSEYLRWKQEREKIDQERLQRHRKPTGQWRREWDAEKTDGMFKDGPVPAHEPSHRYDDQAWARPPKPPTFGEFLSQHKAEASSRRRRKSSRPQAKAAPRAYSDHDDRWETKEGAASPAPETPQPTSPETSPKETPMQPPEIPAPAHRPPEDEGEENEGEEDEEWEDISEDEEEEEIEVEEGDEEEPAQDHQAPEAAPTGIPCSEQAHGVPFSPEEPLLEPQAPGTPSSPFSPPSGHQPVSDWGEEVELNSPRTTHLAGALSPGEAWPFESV
# UniProt O75909: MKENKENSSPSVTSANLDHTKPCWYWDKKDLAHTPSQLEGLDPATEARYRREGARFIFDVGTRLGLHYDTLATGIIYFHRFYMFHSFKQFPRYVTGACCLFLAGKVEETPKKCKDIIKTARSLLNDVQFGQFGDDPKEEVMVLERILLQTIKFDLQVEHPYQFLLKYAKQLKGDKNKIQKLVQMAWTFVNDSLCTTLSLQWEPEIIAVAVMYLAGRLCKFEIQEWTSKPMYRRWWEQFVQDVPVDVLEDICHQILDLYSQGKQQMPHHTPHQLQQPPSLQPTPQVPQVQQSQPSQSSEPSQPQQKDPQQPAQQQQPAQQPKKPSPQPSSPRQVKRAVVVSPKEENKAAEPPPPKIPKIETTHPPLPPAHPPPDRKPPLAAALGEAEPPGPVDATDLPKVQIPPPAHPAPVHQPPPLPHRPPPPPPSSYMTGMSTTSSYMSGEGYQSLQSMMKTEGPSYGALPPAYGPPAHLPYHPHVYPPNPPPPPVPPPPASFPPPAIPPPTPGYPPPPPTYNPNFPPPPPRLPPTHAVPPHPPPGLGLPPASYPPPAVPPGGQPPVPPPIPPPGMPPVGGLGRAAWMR
# UniProt Q01518, whole entry, looked up: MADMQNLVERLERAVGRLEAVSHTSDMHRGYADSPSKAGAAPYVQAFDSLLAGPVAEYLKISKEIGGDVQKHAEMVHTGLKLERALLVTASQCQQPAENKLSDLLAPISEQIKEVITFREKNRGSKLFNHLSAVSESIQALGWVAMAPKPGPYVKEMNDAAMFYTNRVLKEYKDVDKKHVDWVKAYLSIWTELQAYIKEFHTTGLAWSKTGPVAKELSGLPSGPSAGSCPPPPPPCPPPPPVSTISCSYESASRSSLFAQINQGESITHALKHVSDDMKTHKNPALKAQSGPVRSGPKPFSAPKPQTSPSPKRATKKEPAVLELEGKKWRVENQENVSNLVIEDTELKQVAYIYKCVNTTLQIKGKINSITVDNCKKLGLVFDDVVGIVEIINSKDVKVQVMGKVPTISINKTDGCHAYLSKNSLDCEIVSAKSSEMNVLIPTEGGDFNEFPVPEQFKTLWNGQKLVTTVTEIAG
# UniProt Q9H6F5: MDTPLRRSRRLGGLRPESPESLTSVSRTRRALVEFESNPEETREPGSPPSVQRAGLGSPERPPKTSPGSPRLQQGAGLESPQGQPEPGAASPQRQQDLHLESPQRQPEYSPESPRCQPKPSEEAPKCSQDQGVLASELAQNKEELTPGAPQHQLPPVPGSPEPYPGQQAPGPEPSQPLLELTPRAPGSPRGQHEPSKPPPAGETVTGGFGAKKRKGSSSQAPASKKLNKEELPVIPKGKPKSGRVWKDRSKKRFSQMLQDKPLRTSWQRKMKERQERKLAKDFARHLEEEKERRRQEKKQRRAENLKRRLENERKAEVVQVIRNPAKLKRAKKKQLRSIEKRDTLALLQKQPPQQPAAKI
# Some of the results follow.
# Compound: CC1Cc2ccccc2N1C(=O)C1CCCN(C1)C(=O)CCl (mixture of isomers) [TRIM25 ligand 11 (diastereomer mixture)]
# Assay: probe-labelled cysteine peptide fold change vs DMSO (competition) (log2 fold change); higher = less target engagement (more negative = stronger competition)
# Conditions: THP-1, incubation time: 4 h
# 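Note: competitive chemoproteomic profiling in live THP-1 cells with an iodoacetamide desthiobiotin (IA-DTB) probe, comparing probe-labelled peptide intensities in compound-treated cells against DMSO-treated controls.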
Target,probe-labelled cysteine peptide fold change (10 µM),probe-labelled cysteine peptide fold change (50 µM)
CCDC47_Q96A33_214_VCCEGMLIQLR (UniProt Q96A33),0.03,0.0289
CASP1_P29466_397_CFYLFPGH (UniProt P29466),-0.182,-0.00189
CAPG_P40121_77_DEQGACAVLAVHLNTLLGER (UniProt P40121),0.103,0.000983
CCDC22_O60826_369_TLGVSFVQAESECR (UniProt O60826),0.0216,0.0744
CCT2_P78371_371_LIHFSGVALGEACTIVLR (UniProt P78371),-0.0596,-0.278
CAP2_P40123_378_VNSIIIDNCKK (UniProt P40123),-0.0354,0.187
CAPN15_O75808_9_ATVGEWSCVR (UniProt O75808),0.348,0.0161
CBFB_Q13951_124_LDGMGCLEFDEER (UniProt Q13951),0.0547,-0.0431
CAPN7_Q9Y6W3_197_AHFPLGANPFLERPQSFISPQSCDAQGQR (UniProt Q9Y6W3),0.0446,-0.0927
CAPZA2_P47755_141_EHYPNGVCTVYGK (UniProt P47755),-0.0378,0.0619
CBFA2T3_O75081_405_HLNNLLNCIMDMVEK (UniProt O75081),-0.0116,-0.0986
CAPZB_P47756_8_SDQQLDCALDLMR (UniProt P47756),-0.338,0.114
CARS_P49589_525_ALVSQCNLYMAAR (UniProt P49589),-0.0945,0.026
CAPZA1_P52907_141_DHYSNGFCTVYAK (UniProt P52907),0.13,-0.0952
CAPN1_P07384_351_LEICNLTPDALK (UniProt P07384),0.115,-0.0444
CC2D1A_Q6P1N0_590_QQHEMCLNHSNQFTQLGNITETTK (UniProt Q6P1N0),-0.0329,-0.0806
CCNH_P51946_244_TCLSQLLDIMK (UniProt P51946),0.203,0.00237
CASP6_P55212_277_KQVPCFASMLTK (UniProt P55212),-0.0264,-0.0725
CASP1_P29466_270_NCPSLK (UniProt P29466),-0.0461,-0.0914
CASP8_Q14790_309+312+313_IYQLMDHSNMDCFICCILSHGDK (UniProt Q14790),0.153,0.113

Target,probe-labelled cysteine peptide fold change (10 µM),probe-labelled cysteine peptide fold change (50 µM)
CAPNS1_P04632_190_SGTICSSELPGAFEAAGFHLNEHLYNMIIR (UniProt P04632),0.128,0.0236
CAPZA2_P47755_157_IDGQQTIIACIESHQFQAK (UniProt P47755),0.13,0.153
CBX4_O00257_185_EAPSPTCPDLGAK (UniProt O00257),-0.174,-0.317
CARM1_Q86X55_438_AGDTLSGTCLLIANKR (UniProt Q86X55),-0.00211,0.0552
CASP7_P55210_139_ASEEDHTNAACFACILLSHGEENVIYGK (UniProt P55210),0.0627,0.151
CBLL1_Q75N03_109_DDTPVHFCDK (UniProt Q75N03),0.277,0.375
CASP7_P55210_246_GSWFVQALCSILEEHGK (UniProt P55210),0.0128,0.0373
CASP3_P42574_47_MDYPEMGLCIIINNK (UniProt P42574),-0.153,-0.158
CCT3_P49368_366_KIGDEYFTFITDCKDPK (UniProt P49368),-0.323,-0.183
CASP8AP2_Q9UKL3_270_DLSTGCGDGEPR (UniProt Q9UKL3),-0.112,-0.23
CCDC9_Q9Y3X0_233_CGLEHER (UniProt Q9Y3X0),-0.0693,-0.231
CARD6_Q9BX69_637_NMEGLQAALQEVMFSSCLR (UniProt Q9BX69),0.0602,-0.306
CCT3_P49368_455_TLIQNCGASTIR (UniProt P49368),-0.0416,0.0607
CCDC117_Q8IWD4_81_REEEEDDDCPVR (UniProt Q8IWD4),-0.116,0.115
CASP1_P29466_362_LIEHMQEYACSCDVEEIFR (UniProt P29466),0.023,0.0533
CCNK_O75909_23_ENSSPSVTSANLDHTKPCWYWDK (UniProt O75909),-0.222,-0.323
CAP1_Q01518_93_ALLVTASQCQQPAENKLSDLLAPISEQIK (UniProt Q01518),-0.11,0.282
CCDC86_Q9H6F5_127_CSQDQGVLASELAQNK (UniProt Q9H6F5),0.209,0.098
CBLL1_Q75N03_172_GSLFMCSIVQGCK (UniProt Q75N03),0.0434,0.0724
CAST_P20810_328_CGEDDETIPSEYR (UniProt P20810),-0.166,-0.0812

# Record cards, as listed above. Values in the order: probe-labelled cysteine peptide fold change (10 µM) | probe-labelled cysteine peptide fold change (50 µM)
# CASP7_P55210_246_GSWFVQALCSILEEHGK (UniProt P55210) as listed: 0.0128 | 0.0373
# CBFB_Q13951_124_LDGMGCLEFDEER (UniProt Q13951) as listed: 0.0547 | -0.0431
